Results: patent US8039514B2, “Sulfonamide compounds and use thereof” (Asahi Kasei Pharma Corporation, priority 2008, dated 2011)
Some results were stated once for a whole list of compounds, not compound by compound.

Target: T1, human calcium-sensing receptor (CaSR) (Homo sapiens, UniProt P41180)
T1 construct: expressed in transfected cells
T1 sequence (P41180 20-1078): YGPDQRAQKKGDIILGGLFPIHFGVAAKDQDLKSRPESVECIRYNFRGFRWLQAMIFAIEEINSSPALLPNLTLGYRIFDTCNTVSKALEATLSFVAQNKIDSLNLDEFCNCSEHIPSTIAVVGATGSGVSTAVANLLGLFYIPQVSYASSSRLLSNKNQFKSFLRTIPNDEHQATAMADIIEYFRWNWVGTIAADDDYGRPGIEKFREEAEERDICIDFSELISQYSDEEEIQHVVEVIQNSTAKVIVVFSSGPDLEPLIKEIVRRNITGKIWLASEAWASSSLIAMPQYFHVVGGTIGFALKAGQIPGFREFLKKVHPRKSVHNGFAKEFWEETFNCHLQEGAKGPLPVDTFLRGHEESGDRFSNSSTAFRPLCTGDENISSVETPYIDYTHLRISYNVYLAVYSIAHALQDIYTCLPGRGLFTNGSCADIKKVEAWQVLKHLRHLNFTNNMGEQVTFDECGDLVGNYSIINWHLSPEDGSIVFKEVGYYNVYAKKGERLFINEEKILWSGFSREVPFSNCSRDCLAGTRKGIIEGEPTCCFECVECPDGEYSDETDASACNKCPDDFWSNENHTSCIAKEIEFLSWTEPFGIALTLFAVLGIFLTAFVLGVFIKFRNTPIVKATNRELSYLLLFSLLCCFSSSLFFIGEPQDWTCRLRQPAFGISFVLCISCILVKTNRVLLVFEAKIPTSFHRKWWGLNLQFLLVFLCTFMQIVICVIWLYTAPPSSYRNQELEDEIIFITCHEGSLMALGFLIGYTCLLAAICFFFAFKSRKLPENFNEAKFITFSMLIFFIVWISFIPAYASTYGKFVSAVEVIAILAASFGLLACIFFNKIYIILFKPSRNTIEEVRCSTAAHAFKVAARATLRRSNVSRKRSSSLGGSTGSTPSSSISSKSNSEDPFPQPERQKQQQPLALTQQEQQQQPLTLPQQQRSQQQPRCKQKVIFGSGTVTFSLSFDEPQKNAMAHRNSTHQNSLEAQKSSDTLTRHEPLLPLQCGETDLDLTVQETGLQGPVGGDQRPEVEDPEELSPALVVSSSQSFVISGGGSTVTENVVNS
Assay: intracellular Ca assay, CaSR antagonist activity in HEK293/hCaSR cells
Assay type: cell-based
Conditions: Fura2-AM, inhibition of response to calcium chloride ligand solution
How it was run: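 HEK293/hCaSR cells were loaded with Fura2-AM and pre-incubated with compound for 160 s at 37° C in HEPES buffer (pH 7.4, 0.8 mM CaCl2), then challenged with calcium ligand solution. Read-out was the peak 340/380 nm fluorescence ratio; inhibition is relative to no-compound (0%) and no-calcium-ligand (100%) controls.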

| SMILES | IC50 values according to the intracellular Ca assay (CaSR antagonist activity) |
| --- | --- |
| CN(C[C@H](O)CNC(C)(C)CC1Cc2ccccc2C1)S(=O)(=O)c1ccc(CCC(=O)O)c(Cl)c1 [Exp. 10-8, (R)-3-(2-chloro-4-(N-(3-(1-(2,3-dihydro-1H-inden-2-yl)-2-methylpropan-2-ylamino)-2-hydroxypropyl)-N-methylsulfamoyl)phenyl)propionic acid] | 1.0 to 0.3 μM |
| CN(C[C@H](O)CNC(C)(C)CC1Cc2ccccc2C1)S(=O)(=O)c1ccc(CCC(=O)O)cc1C(F)(F)F [Exp. 10-9, (R)-3-(4-(N-(3-(1-(2,3-dihydro-1H-inden-2-yl)-2-methylpropan-2-ylamino)-2-hydroxypropyl)-N-methylsulfamoyl)-3-(trifluoromethyl)phenyl)propionic acid] | 3.0 to 1.0 μM |
| CCc1cc(CCC(=O)O)ccc1S(=O)(=O)N(C)C[C@H](O)CNC(C)(C)CC1Cc2ccccc2C1 [Exp. 10-12, (R)-3-(4-(N-(3-(1-(2,3-dihydro-1H-inden-2-yl)-2-methylpropan-2-ylamino)-2-hydroxypropyl)-N-methylsulfamoyl)-3-ethylphenyl)propionic acid] | 3.0 to 1.0 μM |
| CN(C[C@H](O)CNC(C)(C)CC1Cc2ccccc2C1)S(=O)(=O)c1ccc(CCCCC(=O)O)c(C(F)(F)F)c1 [Exp. 10-13, (R)-5-(4-(N-(3-(1-(2,3-dihydro-1H-inden-2-yl)-2-methylpropan-2-ylamino)-2-hydroxypropyl)-N-methylsulfamoyl)-2-(trifluoromethyl)phenyl)pentanoic acid] | 1.0 to 0.3 μM |
| CN(C[C@H](O)CNC(C)(C)CC1Cc2ccccc2C1)S(=O)(=O)c1ccc(CCC(C)(C)CC(=O)O)c(C(F)(F)F)c1 [Exp. 10-16, (R)-5-(4-(N-(3-(1-(2,3-dihydro-1H-inden-2-yl)-2-methylpropan-2-ylamino)-2-hydroxypropyl)-N-methylsulfamoyl)-2-(trifluoromethyl)phenyl)-3,3-dimethylpentanoic acid] | 1.0 to 0.3 μM |
| CN(C[C@H](O)CNC(C)(C)CCCc1ccccc1)S(=O)(=O)c1ccc(C(F)(F)F)cc1CCC(=O)O [Exp. 10-21, (R)-3-(2-(N-(2-hydroxy-3-(2-methyl-5-phenylpentan-2-ylamino)propyl)-N-methylsulfamoyl)-5-(trifluoromethyl)phenyl)propionic acid] | 3.0 to 1.0 μM |
| CCc1cc(CCC(=O)O)ccc1S(=O)(=O)N(C)C[C@H](O)CNC(C)(C)CCCc1ccccc1 [Exp. 10-26, (R)-3-(3-ethyl-4-(N-(2-hydroxy-3-(2-methyl-5-phenylpentan-2-ylamino)propyl)-N-methylsulfamoyl)phenyl)propionic acid] | 3.0 to 1.0 μM |
| CN(C[C@H](O)CNC(C)(C)CCCc1ccccc1)S(=O)(=O)c1ccc(CCC(=O)O)c(Cl)c1 [Exp. 10-27, (R)-3-(2-chloro-4-(N-(2-hydroxy-3-(2-methyl-5-phenylpentan-2-ylamino)propyl)-N-methylsulfamoyl)phenyl)propionic acid] | 3.0 to 1.0 μM |
| CCc1cc(C=CC(=O)O)ccc1S(=O)(=O)N(C)CC(O)CNC(C)(C)CC1Cc2ccccc2C1 (stereo not drawn) [Exp. 11-7, 3-(4-(N-(3-(1-(2,3-dihydro-1H-inden-2-yl)-2-methylpropan-2-ylamino)-2-hydroxypropyl)-N-methylsulfamoyl)-3-ethylphenyl)acrylic acid] | 3.0 to 1.0 μM |
| CN(C[C@H](O)CNC(C)(C)CC1Cc2ccccc2C1)S(=O)(=O)c1ccc(C=CCCC(=O)O)c(C(F)(F)F)c1 [Exp. 11-8, (R)-5-(4-(N-(3-(1-(2,3-dihydro-1H-inden-2-yl)-2-methylpropan-2-ylamino)-2-hydroxypropyl)-N-methylsulfamoyl)-2-(trifluoromethyl)phenyl)pent-4-enoic acid] | 1.0 to 0.3 μM |
| CN(C[C@H](O)CNC(C)(C)CC1Cc2ccccc2C1)S(=O)(=O)c1ccc(C=CCCCC(=O)O)c(C(F)(F)F)c1 [Exp. 11-9, (R)-6-(4-(N-(3-(1-(2,3-dihydro-1H-inden-2-yl)-2-methylpropan-2-ylamino)-2-hydroxypropyl)-N-methylsulfamoyl)-2-(trifluoromethyl)phenyl)hex-5-enoic acid] | 1.0 to 0.3 μM |
| CC(C)(CC1Cc2ccccc2C1)NC[C@@H](O)CNS(=O)(=O)c1cccc(-c2ccc(CCC(=O)O)cc2)c1 [Exp. 14-1, (R)-3-(3′-(N-(3-(1-(2,3-dihydro-1H-inden-2-yl)-2-methylpropan-2-ylamino)-2-hydroxypropyl)sulfamoyl)biphenyl-4-yl)propionic acid] | 1.0 to 0.3 μM |
